No constants are given. Whether binding was seen depends on the method and setting. Some binding calls cover weakened binding; strength is not graded here.
B1: guanine nucleotide dissociation inhibitor 2 (protein, UniProt P50395 1-445)
chain: MNEEYDVIVLGTGLTECILSGIMSVNGKKVLHMDRNPYYGGESASITPLEDLYKRFKIPGSPPESMGRGRDWNVDLIPKFLMANGQLVKMLLYTEVTRYLDFKVTEGSFVYKGGKIYKVPSTEAEALASSLMGLFEKRRFRKFLVYVANFDEKDPRTFEGIDPKKTTMRDVYKKFDLGQDVIDFTGHALALYRTDDYLDQPCYETINRIKLYSESLARYGKSPYLYPLYGLGELPQGFARLSAIYGGTYMLNKPIEEIIVQNGKVIGVKSEGEIARCKQLICDPSYVKDRVEKVGQVIRVICILSHPIKNTNDANSCQIIIPQNQVNRKSDIYVCMISFAHNVAAQGKYIAIVSTTVETKEPEKEIRPALELLEPIEQKFVSISDLLVPKDLGTESQIFISRTYDATTHFETTCDDIKNIYKRMTGSEFDFEEMKRKKNDIYGED

By UniProt entry, the sequences of proteins in these tests, tags left out. Where a name states a change or a piece, a line headed by the entry shows the natural chain unless it says otherwise.
UniProt P06756: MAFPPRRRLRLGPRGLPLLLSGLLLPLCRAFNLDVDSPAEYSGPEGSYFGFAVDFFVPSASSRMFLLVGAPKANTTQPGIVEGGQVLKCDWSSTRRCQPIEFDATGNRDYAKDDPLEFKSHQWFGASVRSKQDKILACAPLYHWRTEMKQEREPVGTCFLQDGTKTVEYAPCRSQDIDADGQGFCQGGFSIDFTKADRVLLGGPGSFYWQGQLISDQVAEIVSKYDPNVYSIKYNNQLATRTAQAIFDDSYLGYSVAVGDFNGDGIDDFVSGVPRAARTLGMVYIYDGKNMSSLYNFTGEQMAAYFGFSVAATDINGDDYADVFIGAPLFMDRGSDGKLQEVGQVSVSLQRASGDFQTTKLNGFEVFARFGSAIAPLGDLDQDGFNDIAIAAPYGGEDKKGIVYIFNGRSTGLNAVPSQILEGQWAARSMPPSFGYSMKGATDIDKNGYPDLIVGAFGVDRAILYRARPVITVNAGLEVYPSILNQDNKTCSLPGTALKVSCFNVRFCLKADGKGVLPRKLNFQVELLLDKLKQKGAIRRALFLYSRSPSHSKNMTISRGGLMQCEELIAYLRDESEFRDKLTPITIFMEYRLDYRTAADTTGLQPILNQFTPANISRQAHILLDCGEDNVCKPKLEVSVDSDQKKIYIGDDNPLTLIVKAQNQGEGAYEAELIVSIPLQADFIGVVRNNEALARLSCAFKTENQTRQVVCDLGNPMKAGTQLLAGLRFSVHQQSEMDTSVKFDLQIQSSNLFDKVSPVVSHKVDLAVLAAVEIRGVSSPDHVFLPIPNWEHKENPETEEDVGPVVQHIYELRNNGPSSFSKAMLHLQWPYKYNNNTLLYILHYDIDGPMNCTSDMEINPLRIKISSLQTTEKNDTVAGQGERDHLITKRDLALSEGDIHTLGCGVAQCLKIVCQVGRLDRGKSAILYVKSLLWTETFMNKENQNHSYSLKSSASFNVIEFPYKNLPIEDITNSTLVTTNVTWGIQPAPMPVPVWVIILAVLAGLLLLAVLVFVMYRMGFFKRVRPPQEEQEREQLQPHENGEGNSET
UniProt P18564: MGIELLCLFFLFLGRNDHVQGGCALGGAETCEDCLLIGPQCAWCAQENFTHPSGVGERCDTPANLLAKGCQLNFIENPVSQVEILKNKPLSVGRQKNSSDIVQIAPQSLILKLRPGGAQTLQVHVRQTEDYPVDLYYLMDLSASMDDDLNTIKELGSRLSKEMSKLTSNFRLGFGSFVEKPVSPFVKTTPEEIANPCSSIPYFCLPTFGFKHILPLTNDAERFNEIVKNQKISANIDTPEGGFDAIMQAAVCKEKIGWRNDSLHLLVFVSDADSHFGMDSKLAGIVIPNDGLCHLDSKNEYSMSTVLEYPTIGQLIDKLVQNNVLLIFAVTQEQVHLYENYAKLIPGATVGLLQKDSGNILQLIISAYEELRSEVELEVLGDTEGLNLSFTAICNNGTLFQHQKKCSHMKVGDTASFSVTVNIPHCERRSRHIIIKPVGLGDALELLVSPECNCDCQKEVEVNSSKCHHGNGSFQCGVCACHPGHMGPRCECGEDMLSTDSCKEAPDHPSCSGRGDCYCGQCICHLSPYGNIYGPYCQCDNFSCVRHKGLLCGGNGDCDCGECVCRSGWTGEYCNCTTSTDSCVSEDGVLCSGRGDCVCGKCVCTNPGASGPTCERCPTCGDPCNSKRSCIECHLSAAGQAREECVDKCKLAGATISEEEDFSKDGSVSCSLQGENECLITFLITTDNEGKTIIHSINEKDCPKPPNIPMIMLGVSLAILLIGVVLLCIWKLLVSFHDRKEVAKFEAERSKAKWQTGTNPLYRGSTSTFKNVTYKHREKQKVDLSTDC
UniProt P51149: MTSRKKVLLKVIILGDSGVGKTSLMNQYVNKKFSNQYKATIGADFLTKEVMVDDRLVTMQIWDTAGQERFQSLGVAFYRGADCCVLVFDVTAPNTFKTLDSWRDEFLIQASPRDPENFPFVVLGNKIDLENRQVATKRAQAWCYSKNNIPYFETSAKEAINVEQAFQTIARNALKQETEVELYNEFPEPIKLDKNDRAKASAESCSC
UniProt P04406: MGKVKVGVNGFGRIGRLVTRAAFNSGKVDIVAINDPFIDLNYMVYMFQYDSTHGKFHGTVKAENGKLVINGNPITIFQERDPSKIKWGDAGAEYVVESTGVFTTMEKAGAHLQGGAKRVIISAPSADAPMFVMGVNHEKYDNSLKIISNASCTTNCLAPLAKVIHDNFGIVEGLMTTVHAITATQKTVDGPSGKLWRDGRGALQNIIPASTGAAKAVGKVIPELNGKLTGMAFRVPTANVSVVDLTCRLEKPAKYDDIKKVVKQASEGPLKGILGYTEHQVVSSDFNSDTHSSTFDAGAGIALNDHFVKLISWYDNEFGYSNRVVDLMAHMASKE
UniProt P49023: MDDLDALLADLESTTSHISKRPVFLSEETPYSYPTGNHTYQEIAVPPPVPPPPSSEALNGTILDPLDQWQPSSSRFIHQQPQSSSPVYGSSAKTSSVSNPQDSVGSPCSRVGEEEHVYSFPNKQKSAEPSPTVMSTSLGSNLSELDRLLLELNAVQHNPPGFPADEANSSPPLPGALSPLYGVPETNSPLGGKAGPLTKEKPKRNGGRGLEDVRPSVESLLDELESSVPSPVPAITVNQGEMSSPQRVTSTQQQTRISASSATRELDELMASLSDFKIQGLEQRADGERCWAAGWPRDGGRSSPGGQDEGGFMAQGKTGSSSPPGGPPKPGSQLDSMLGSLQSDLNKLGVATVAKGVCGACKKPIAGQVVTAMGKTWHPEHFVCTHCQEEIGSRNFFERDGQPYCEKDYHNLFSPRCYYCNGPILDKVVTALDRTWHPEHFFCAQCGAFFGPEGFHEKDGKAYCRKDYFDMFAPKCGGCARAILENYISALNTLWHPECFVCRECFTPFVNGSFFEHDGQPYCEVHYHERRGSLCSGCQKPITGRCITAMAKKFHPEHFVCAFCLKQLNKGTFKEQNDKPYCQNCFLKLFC

Molecular target: αVβ6 integrin (human (endogenous in BT474 and HER2-18)) (UniProt P06756+P18564)
Assay: isolation of integrin adhesion complexes (IACs) with immunoblotting; IACs isolated from BT474 cells on LAP, FN and Coll-I after DTBP cross-linking and removal of cell bodies; immunoblot

| binding | Molecule |
| --- | --- |
| binds | RAB7A (from UniProt P51149 1-207) |
| no binding | glyceraldehyde-3-phosphate dehydrogenase (from UniProt P04406 1-335) |
| binds | paxillin (from UniProt P49023 1-591) |
| binds | B1 |
